## Percent effect of library compounds

Measurements from “University of Dundee, Small-Polar-MMV Screening Library” (2021), ChEMBL document CHEMBL3988442.

Values are the deposited “Percent Effect”, in %.
The record does not define 0% and 100%; most values in the screen are far below 50% and negative numbers occur (in some assays of this library far below -100).
This is an unselected part of the compounds tested.

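Assay of Toxoplasma gondii numbers, read through their beta-galactosidase reporter with a colour substrate. Compounds at 50 µM. The record gives no direction; the compounds picked for IC50 retests had high values, so higher reads as fewer parasites. Of about 18,000 compounds tested this way, about 170 (0.94%) reached 50% or more in at least one test.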

| # | SMILES | percent effect |
|---|---|---|
| 1 | `COCCNC(=O)CSC1CCCC1` | 3.177% |
| 2 | `CC(CCN)N(C)Cc1ccccc1` (configuration not stated) | 22.64% |
| 3 | `NC1CC(=O)Nc2ccccc21` (configuration not stated) | 1.011% |
| 4 | `Cc1nn(C)cc1C(C)NC(=O)c1c(I)cnn1C` (configuration not stated) | -11.6% |
| 5 | `OC1(CNc2cncc(Cl)n2)CCOCC1` | 8.411% |
| 6 | `CC(C(=O)Nc1cccc(C#N)c1)N1CCC(O)CC1` (configuration not stated) | -1.632% |
| 7 | `COCCCNC(=O)Nc1cnn(C)c1` | 3.712% |
| 8 | `CNC(=O)CCCN(C)Cc1c(F)cccc1F` | -2.862% |
| 9 | `CC(C)(N)CN1CCN(c2cccc(Cl)c2)CC1` | 48.27% |
| 10 | `CC(C)CC1NCCNC1=O` (configuration not stated) | 43.23% |
| 11 | `CC(C(=O)N1CCCC1)N1CCNCC1` (configuration not stated) | 9.299% |
| 12 | `Cc1csc(N2CCN(C)CC2C)n1` (configuration not stated) | 4.582% |
| 13 | `Cn1cc(NC(=O)NC2CCCCC2)c(C(N)=O)n1` | -22.06% |
| 14 | `CN(C)CCCNC(=O)COc1ccccc1F` | 7.622% |
| 15 | `c1cc(-c2nc3c([nH]2)CCNC3)c2cccnc2c1` | -2.467% |
| 16 | `O=C(CNC(=O)c1cc(F)cc(F)c1)Nc1cnns1` | -13.61% |
| 17 | `Cn1nccc1C(=O)Nc1n[nH]c(C2CCC2)n1` | -3.384% |
| 18 | `CCC(C)N(CC(=O)OC)Cc1nccn1C` (configuration not stated) | 1.211% |
| 19 | `OCCN1CCOc2ncccc21` | 0.6492% |
| 20 | `OCc1cnc2c(F)cccc2c1` | -7.989% |
| 21 | `O=C(Cc1ccc(-n2cnnn2)cc1)N1CCCCO1` | 2.132% |
| 22 | `CCn1cc(CN2CCN(C)CC2(C)C)cn1` | -1.803% |
| 23 | `CC(C)N(C)S(=O)(=O)NCCc1cccs1` | -2.783% |
| 24 | `CNS(=O)(=O)C1CCCN(c2ncc(Br)cc2C)C1` (configuration not stated) | -6.053% |
| 25 | `Cc1ncc(C)c(N)n1` | 4.369% |
| 26 | `CCNC(=O)c1cc(N2CCC(O)CC2)ccn1` | -3.347% |
| 27 | `CN(C)C(=O)OCCn1nc2c(cc1=O)CCCC2` | -1.057% |
| 28 | `NCc1ccc2c(c1)CCS2(=O)=O` | 4.148% |
| 29 | `Cn1nccc1NC(=O)N1CCCN(CC(F)F)CC1` | 6.746% |
| 30 | `CC(N)c1nc(-c2ccc3c(c2)OCO3)c[nH]1` (configuration not stated) | 9.157% |
| 31 | `O=C(NCC1CCOC1)c1sccc1-n1cccc1` (configuration not stated) | -3.183% |
| 32 | `NC(CO)c1ccc(F)cc1F` (configuration not stated) | 5.033% |
| 33 | `COCc1nn(Cc2csc(C(C)C)n2)c(=O)o1` | 3.677% |
| 34 | `CC(C)Cc1cc(CNCC2(O)CCCNC2)on1` (configuration not stated) | 3.375% |
| 35 | `COc1ccccc1[C@@H]1C[C@H]1N` | 0.6465% |
| 36 | `COc1ccc(OC)c(NC(=O)CCn2cnnn2)c1` | 8.902% |
| 37 | `c1nnc(SC2CCOCC2)s1` | 1.789% |
| 38 | `COc1cccc(CN2CCCN(C)CC2)c1OC` | -13.92% |
| 39 | `CC(C)C(=O)N(C)CCC(N)C(C)C` (configuration not stated) | 0.5033% |
| 40 | `OCC(CO)NC1CCCSc2ccccc21` (configuration not stated) | -8.049% |
| 41 | `CC(=O)Nc1ccc(CN)cn1` | -1.136% |
| 42 | `CC(=O)c1cccc(OCC(=O)Nc2cc(C)on2)c1` | 98.67% |
| 43 | `CCc1ccc(C(C)=O)o1` | 20.56% |
| 44 | `Cc1nc(CNC(=O)CC2=CCCCC2)no1` | -8.699% |
| 45 | `NC(=O)CC1CCN(CC(=O)NCC(F)(F)F)CC1` | 3.024% |
| 46 | `Cc1c[nH]c(CN(C)Cc2ccc(S(C)(=O)=O)cc2)n1` | -4.917% |
| 47 | `CCn1c(CN(C)CC(=O)NC)nnc1[C@H]1C[C@H](N)C1` | -4.977% |
| 48 | `CC(C)(C)c1cc(-c2nc3c([nH]2)CCCNC3=O)[nH]n1` | 1.432% |
| 49 | `Cc1cccc(CCC(=O)OC(C)C(N)=O)c1` (configuration not stated) | -3.907% |
| 50 | `CSc1ccc(OCCn2cc(Cl)c(=O)[nH]c2=O)cc1` | 13.26% |

The first 6 entries again:

- COCCNC(=O)CSC1CCCC1 : 3.177%
- CC(CCN)N(C)Cc1ccccc1 (configuration not stated) : 22.64%
- NC1CC(=O)Nc2ccccc21 (configuration not stated) : 1.011%
- Cc1nn(C)cc1C(C)NC(=O)c1c(I)cnn1C (configuration not stated) : -11.6%
- OC1(CNc2cncc(Cl)n2)CCOCC1 : 8.411%
- CC(C(=O)Nc1cccc(C#N)c1)N1CCC(O)CC1 (configuration not stated) : -1.632%